{"source": "patent US5916906A", "about": "“Compositions comprising nicotinylalanine and an inhibitor of glycine conjugation or vitamin B6” (priority 1997, dated 1999)", "key": {"[1]": {"tested_on": "LP-BM5 MuLV Retrovirus", "assay": "MAIDS model: disease stage score, attainment of disease score 4 (Kaplan-Meier) and survival up to 28 weeks", "assay_type": "in vivo, C57BL/6 mice", "description": "Each value represents the mean and one standard standard deviation for groups of surviving mice (at least 4 mice per group) at termination of the study, following 28 weeks post-inoculation by LP-BM5 virus.\n(§1) Each group consisted of 8 mice, except for the virus-negative control group which consisted of 6 mice.\nas §1\nThis study was designed to determine whether nicotinylalanine (NAL) alone or in combination with acetylsalicylic acid (ASA) will prevent or alter the course of murine retroviral-induced immunodeficiency disease, MAIDS, in C57BL/6 female mice. […]\nMeasures of disease progression followed the methods developed by Eiseman et al., 1991 (Ibid). […] Severity of disease is scored as follows: 0.5, increased body weight and variably detected increase in size of any one lymph node or spleen; +1, clearly detectable increase in the size of a lymph node and spleen; +2, readily detectable (greater than 0.3 cm in diameter) increased size in more than one lymph node and, in particular, enlargement of subcervical, brachial or axillary nodes; +3, increased size of all palpable nodes and palpable splenomegaly (≥0.3 grams); +4, advanced disease with extensive splenomegaly (>1.0 grams) and lymphadenopathy. […]"}, "[2]": {"tested_on": "LP-BM5 MuLV Retrovirus", "assay": "MAIDS model, interim sacrifices: body weight, disease score, spleen weight", "assay_type": "in vivo, C57BL/6 mice", "procedure": "This study was designed to determine whether nicotinylalanine (NAL) alone or in combination with acetylsalicylic acid (ASA) will prevent or alter the course of murine retroviral-induced immunodeficiency disease, MAIDS, in C57BL/6 female mice. The LP-BM5 MuLV virus used for these studies was prepared from chronically infected SC-1 cells (ATCC Cat. No. CRL-1404), as described by Yetter R. A. et al., J. Exp. Med., 168, 623-635, 1988. […] The MAIDS model is well characterized and reproducible in the laboratory, as described by Mosier D. E. et al., J. Exp. Med. 161, 766-784, 1985.\nMeasures of disease progression followed the methods developed by Eiseman et al., 1991 (Ibid). Disease scores 0 through +4 are based upon body weight gain and palpable alterations in the size of lymph nodes and spleen. Severity of disease is scored as follows: 0.5, increased body weight and variably detected increase in size of any one lymph node or spleen; +1, clearly detectable increase in the size of a lymph node and spleen; +2, readily detectable (greater than 0.3 cm in diameter) increased size in more than one lymph node and, in particular, enlargement of subcervical, brachial or axillary nodes; +3, increased size of all palpable nodes and palpable splenomegaly (≥0.3 grams); +4, advanced disease with extensive splenomegaly (>1.0 grams) and lymphadenopathy.\nSpecific pathogen free, female C57BL/6 mice (5 weeks of age) were purchased from Charles River Breeding Laboratories. All mice were allowed one week to acclimate to housing facilities prior to randomization for study. Animals were marked for identification and placed in microisolator cages with identifying cards (5 mice/cage), where autoclaved food and water were provided ad libitum.\nNAL and ASA were formulated under sterile conditions according to preformulation methods outlined in Remington's Pharmaceutical Sciences Handbook, 18th Edition, 1990, ibid). NAL and ASA were dissolved in sterile phosphate-buffered normal saline solution (i.e., vehicle; Biofluids Inc., Lot 413054), adjusted to between pH 7.2 to 7.4 with […], sterilized by filtration through 0.2 μm bottle-type filters, and dispersed into sterile glass vials, sealed and capped (Wheaton Inc.). […]\nDisease progression was monitored by measuring serum IgM levels by ELISA on all animals at monthly intervals during the course of disease. […] Disease scores for each animal were recorded weekly based upon palpation of lymph nodes and spleen. Complete gross necropsies were performed on these euthanized animals and the ratio of recorded spleen to body weights was an additional indicator of diseases progression. […] Infection was quantified by ecotropic virus XC plaque assays of spleens removed from the interim sacrificed animals."}}, "note": "At least one compound was matched to its structure with a doubt left.", "data": [{"compound": "NC(CC(=O)c1cccnc1)C(=O)O", "note": "(racemic) [NAL, γ-(3-pyridyl)-γ-oxo-α-aminobutyrate]", "values": [{"measurement": "Disease progression vs control (in words)", "setting": "[1]; NAL-Only 400 mg/kg, FIG. 5", "result": "no statistically significant difference"}, {"measurement": "Effect upon the antiviral or anti-disease properties of AZT", "setting": "[1]; nicotinylalanine 400 mg/kg, mouse MAIDS model", "result": "no statistically significant effect"}, {"measurement": "Disease progression (in words)", "setting": "[2]; NAL 400 mg/kg initiated two weeks after virus inoculation", "result": "did not substantially retard disease progression"}, {"measurement": "Efficacy against disease progression (in words)", "setting": "[2]; NAL 400 mg/kg initiated two weeks after virus, 3rd and 4th months", "result": "begin to show efficacy in the 3rd and 4th months"}, {"measurement": "Disease progression (in words)", "setting": "[2]; racemic NAL 200 mg/kg", "result": "did not substantially retard disease progression"}, {"measurement": "Disease progression of MAIDS (in words)", "setting": "[2]; racemic NAL alone 400 mg/kg", "result": "did not substantially retard progression of MAIDS"}]}]}
